In patent EP4628505A1 (Genor Biopharma Co., Ltd., dated 2025):
These are yes or no findings as the source states them, for the method shown. Some entries that bind do so weakly or less than the wild type.

T1: cynomolgus monkey CTLA4 (Acro Biosystem, Catlog #Ct4-C82E5) (cynomolgus monkey (Macaca fascicularis)) (UniProt G7PL88)
T1 sequence: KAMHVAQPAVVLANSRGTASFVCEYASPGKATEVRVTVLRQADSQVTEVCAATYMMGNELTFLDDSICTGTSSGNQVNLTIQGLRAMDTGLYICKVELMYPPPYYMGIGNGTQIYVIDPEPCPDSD


Biological target: T1, cynomolgus monkey CTLA4 (Acro Biosystem, Catlog #Ct4-C82E5) (cynomolgus monkey (Macaca fascicularis))
Experiment: ELISA, plate coated with 1 ug/ml cynomolgus monkey CTLA4

binding	Binder
binds	GBD008-S004 (antibody, V domains shown, Heavy chain-only antibody (VHH-Fc), no light chain) VH: EVQLVESGGGLVQAGGSLRLSCLASGRTFSSYDMGWFRQAPGKEREFVAAISWGGVNTYYADSVKGRFTISRDNAKNTVYLQMNSLKPEDTAVYYCARGSAPYSSSRSSAQETYAQWGQGTQVTVSS
binds	GBD008-hS004-5 (antibody, V domains shown, Humanized heavy chain-only antibody (VHH-Fc), no light chain) VH: EVQLVESGGGLVQPGGSLRLSCAASGRTFSSYDMGWFRQAPGKEREFVAAISWGGVNTYYADSVKGRFTISRDNAKNTLYLQMNSLRAEDTAVYYCARGSAPYSSSRSSAQETYAQWGQGTLVTVSS
binds	GBD008-hS005-3 (antibody, V domains shown, Humanized heavy chain-only antibody (VHH-Fc), no light chain) VH: EVQLVESGGGLVQPGGSLRLSCAASGRTASSNAMAWVRQAPGKEREFVSAISATGGLTAYADSVKGRFTISRDNSKNTLYLQMNSLRAEDTAVYYCAVGRERWYLRHTENEYDYWGQGTLVTVSS
binds	GBD008-hS005-3-2 (antibody, V domains shown, Humanized heavy chain-only antibody (VHH-Fc), no light chain) VH: EVQLVESGGGLVQPGGSLRLSCAASGRTASSNAMAWFRQAPGKEREFVSAISATGGLTAYADSVKGRFTISRDNSKNTLYLQMNSLRAEDTAVYYCAVGRERWYLRHTENEYDYWGQGTLVTVSS
binds	GBD008-S019 (antibody, V domains shown, Heavy chain-only antibody (VHH-Fc), no light chain; also called GBD008-5019) VH: QVQLVESGGGLVQPGGSLTLSCAASGFTFSSYTMAWYRQAPGKEREVVAGISRSGGTTNYGDSVKGRFTISRDNAKNTVYLQMNSLKPEDTAVYYCRAVSDYWGQGTQVTVSS
binds	GBD008-hS019-4 (antibody, V domains shown, Humanized heavy chain-only antibody (VHH-Fc), no light chain) VH: EVQLLESGGGLVQPGGSLRLSCAASGFTFSSYTMAWYRQAPGKEREVVAGISRSGGTTNYGDSVKGRFTISRDNSKNTLYLQMNSLRAEDTAVYYCRAVSDYWGQGTLVTVSS
